Measured values from patent US20170022553.
Construct, isoform or probe ends are uncertain for at least one entry. For some assays here: Where a protein sequence is shown, tags need not be part of it.

Amino acid sequences for entries named in this document (tags omitted). Residues count along the entry.
UniProt P00582, 324-928: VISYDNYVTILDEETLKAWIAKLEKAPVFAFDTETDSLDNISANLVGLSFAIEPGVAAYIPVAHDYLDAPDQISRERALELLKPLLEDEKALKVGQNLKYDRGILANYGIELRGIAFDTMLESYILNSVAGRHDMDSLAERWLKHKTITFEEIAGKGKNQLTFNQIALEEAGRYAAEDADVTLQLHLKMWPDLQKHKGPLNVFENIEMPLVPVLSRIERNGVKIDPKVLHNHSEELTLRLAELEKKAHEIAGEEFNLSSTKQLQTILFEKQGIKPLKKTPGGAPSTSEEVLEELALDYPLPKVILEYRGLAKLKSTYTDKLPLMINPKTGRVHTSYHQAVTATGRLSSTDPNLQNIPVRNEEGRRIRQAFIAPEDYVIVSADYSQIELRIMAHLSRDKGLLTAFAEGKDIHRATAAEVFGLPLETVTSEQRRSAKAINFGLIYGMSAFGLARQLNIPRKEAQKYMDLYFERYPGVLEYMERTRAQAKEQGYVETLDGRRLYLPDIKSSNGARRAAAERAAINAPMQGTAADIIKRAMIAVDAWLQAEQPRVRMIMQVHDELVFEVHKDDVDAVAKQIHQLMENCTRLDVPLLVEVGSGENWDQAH

Assays:
[1] = biological target: Klenow fragment (3'->5' exo-) of E. coli DNA polymerase I (Escherichia coli) (UniProt P00582); test: BLI; conditions: 3' inverted dT on template; strong with correct dNTP and Ni, Ba or Sr; Ni stabilizes ternary complex over 10 min; poor without dNTP; purified recombinant protein; protein details: Enzymatics P7010-LC-L; label: 5' biotin on …
[2] = biological target: T1, Bsu DNA polymerase I large fragment (Bacillus subtilis) (UniProt O34996); test: BLI; conditions: 3' inverted dT on template; deoxyinosine in primer [strand 2 position 29 deoxyinosine (written as G); strand 1 3' inverted dT (left out)]; dGTP, 1 mM Ni(II), 30 C; lower amplitude, higher kobs than ALK-G1; purified recombinant protein; protein details: New England Biolabs M0330L; label: 5' biotin on template; letters built from the parent sequence and the stated change
T1 sequence (looked up, limits assumed): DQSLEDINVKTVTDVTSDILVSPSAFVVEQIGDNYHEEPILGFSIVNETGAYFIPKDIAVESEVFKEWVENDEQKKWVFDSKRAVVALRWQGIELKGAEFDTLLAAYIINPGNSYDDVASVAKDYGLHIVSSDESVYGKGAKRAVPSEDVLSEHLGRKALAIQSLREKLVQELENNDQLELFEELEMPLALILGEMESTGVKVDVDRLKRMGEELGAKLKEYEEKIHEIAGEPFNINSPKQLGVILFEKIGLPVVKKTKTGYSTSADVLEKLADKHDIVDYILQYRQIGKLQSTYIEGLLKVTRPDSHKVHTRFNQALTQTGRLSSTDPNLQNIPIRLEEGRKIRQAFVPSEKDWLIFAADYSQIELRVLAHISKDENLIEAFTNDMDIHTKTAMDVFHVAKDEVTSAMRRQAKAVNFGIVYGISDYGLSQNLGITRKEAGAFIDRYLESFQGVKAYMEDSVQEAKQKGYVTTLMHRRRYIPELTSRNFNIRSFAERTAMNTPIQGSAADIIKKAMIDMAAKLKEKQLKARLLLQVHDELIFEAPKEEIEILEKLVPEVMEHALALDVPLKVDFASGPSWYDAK

Klenow fragment [3] = biological target: Klenow fragment (UniProt P00582); test: BLI; conditions: 100 nM klenow, 1 mM SrCl2; only correct ternary complex stabilized in wash with 50 uM dNTP; purified recombinant protein; label: 5' biotin on template
Bst 2.0 DNA polymerase = test: BLI; conditions: ternary complex with correct dNTP; LS buffer + 150 mM NaCl, no Mg; 5 of 6 bases called; purified recombinant protein; label: 5' biotin on template
Klenow fragment [4] = biological target: Klenow fragment (UniProt P00582); test: SPR; conditions: SPR imaging; binds with correct dNTP (A,T,G); little response with mismatched dNTP; 300 mM KCl, 1 mM SrCl2; purified recombinant protein; label: 5' biotin on template

GTGAGCCTGCAATCCCTGCCCCGGTTCATCCTGATGGAGCTCATGGCGGG / CCCGCCATGAGCTC [ALK C4493A/4496-4509AS primer-template]
binding result [1]: binds

GTGAGCCTGCAATCCCTGCCCCGGTTCATCCTGCTGGAGCTCATGGCGGG / CCCGCCATGAGCTCCAGCAGGATGAACCGGGGCA [ALK-G3 primer-template]
binding result [2]: binds

GGCAAATCACCAGAAGGCGGTTCCTGAATGAATGGGAAGCCTTCAAGAAGGTGATAAGCAGGAGAAACATACGAAGGCGCATAACGATACCACTGACCCTC / GAGGGTCAGTGGTATCGTTATG [phiX_matchC/FP2 primer-template]
binding result (Klenow fragment [3]): binds
binding result (Bst 2.0 DNA polymerase): binds

GGCAAATCACCAGAAGGCGGTTCCTGAATGAATGGGAAGCCTTCAAGAAGGTGATAAGCAGGAGAAACATACGAAGCATCATAACGATACCACTGACCCTC / GAGGGTCAGTGGTATCGTTATG [phiX_matchA/FP2 primer-template]
binding result (Klenow fragment [4]): binds
